Source: patent US20200299370A1 (UNIVERSITY OF FLORIDA RESEARCH FOUNDATION, published 2020)
Positions count from the first letter of the chain named. Results are given in words; binding and its absence hold for the method and conditions named. Some binding calls cover weakened binding; strength is not graded here.

The chains behind the UniProt entries cited, without tags or fusion partners. Where a name states a change or a piece, a line headed by the entry shows the natural chain unless it says otherwise. A line that says so, or that is headed by a name, gives the form on record, which may keep a tag or linker.
endogenous mouse tau (P10637, form named): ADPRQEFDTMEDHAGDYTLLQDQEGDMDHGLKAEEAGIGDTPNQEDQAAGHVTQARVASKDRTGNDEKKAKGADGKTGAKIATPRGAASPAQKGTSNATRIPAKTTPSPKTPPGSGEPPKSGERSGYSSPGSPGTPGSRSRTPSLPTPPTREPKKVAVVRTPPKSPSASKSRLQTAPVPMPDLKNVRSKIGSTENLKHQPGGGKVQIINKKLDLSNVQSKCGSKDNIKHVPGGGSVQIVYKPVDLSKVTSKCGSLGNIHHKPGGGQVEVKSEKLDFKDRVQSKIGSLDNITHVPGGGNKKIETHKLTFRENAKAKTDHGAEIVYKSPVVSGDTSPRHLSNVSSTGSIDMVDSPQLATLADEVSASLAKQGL
sarkosyl-insoluble tau from the temporal cortex of human AD cases (P10636, form named): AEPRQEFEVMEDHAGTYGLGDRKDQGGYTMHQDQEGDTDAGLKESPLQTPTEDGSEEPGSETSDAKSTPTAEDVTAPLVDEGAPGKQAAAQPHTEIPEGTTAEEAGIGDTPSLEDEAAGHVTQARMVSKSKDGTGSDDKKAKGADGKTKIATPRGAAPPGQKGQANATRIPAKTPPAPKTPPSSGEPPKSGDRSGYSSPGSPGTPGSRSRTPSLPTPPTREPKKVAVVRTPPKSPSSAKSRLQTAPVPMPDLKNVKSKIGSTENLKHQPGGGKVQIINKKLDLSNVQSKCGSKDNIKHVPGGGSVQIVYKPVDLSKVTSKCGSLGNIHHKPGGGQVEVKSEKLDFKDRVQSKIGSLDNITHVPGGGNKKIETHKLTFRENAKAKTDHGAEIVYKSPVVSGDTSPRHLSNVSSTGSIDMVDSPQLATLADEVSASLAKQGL

B1: PHF2 (antibody, V domains shown)
VH: EVQLVESGGGSVKPGGSLKLSCAASGFTFSSYAMSWVRQTPEKRLEWVASITRGGSYTYFPDSVKGRFTISRDNTKDTLYLQMSSLRSEDTAMYYCTRQGNYDGAWCDYWGQGTLVTVSA
VL: DILLTQSPAILSVSPGERVSFSCRASQNIGTSIHWYQQRTNGSPRLLIKYTSESISGIPSRFGGSGSGTDFTLSVNGVESEDVADYYCQQTKTWPTTFGAGTKLELKR
B2: PHF15 (antibody, V domains shown)
VH: B1 VH with M34L, R53S, T75A, D77N, Q99P, D108A, A120S
VL: DILLTQSPAILSVSPGERDSFSCRASQNIGTSIHWYQQRTNGSPRLLIKYASESISGIPSRFSGSGSGTDFTLSVNSVESEDVADYYCQQTKTWPTTFGAGTKLDLK
B3: 2D1 (antibody, V domains shown)
VH: EVKLVESGGGLVQPGGSLRLSCATSGFTFTDFSMNWVRQPPGKALEWLGCVRDRAEGYTTEYSASVQGRFTISRDNSQSILYLQMNTLRPEDSATYYCARERAFAYWGQGTLVTVSA
VL: DIVMSQSPSSLAVSAGEKVTMSCKSSQSLLYSRNQKNYLAWYQQRPGQSPKLLIYWASSRESGVSDRFTGSGSGTDFTLTISSVKADDLAVYYCQQYYKSPLTFGAGTKLELKR
notes: also called clone 2D1
B4: 6G12 (antibody, V domains shown)
VH: EVNLEESGGGLVQPGGSMKLSCVASGFTFSDYWMNWVRQSPEKGLEWVAEIRLKSDNFATHYAESVKGRFTISRDDSKSSVYLQTNNLRAEDTGIYYCTLMRGDYGAEFAYWGQGTLAIVSA
VL: DIVMSQSPSSLAVSVGEKVTLTCKSSRSLLYRGNQENFLAWYQQKPGQSPKLLIYWASTRESGVPDRFTGSGSGTDFTLTINSVKAEDLAVYYCQQYYTYPYTFGGGTKLEIKR
B5: 7F2 (antibody, V domains shown)
VH: QVQLQQSGAELVQPGGSMKLSCVASGFTFSNYWMNWVRQSPETGLEWVAEIRLKSYNYATHYAESVTGRFTISRDDSKNRVYLQMNNLGPDDTGIYYCTTGGAYHPFDYWGQGTTLTVSS
VL: EIVLTQSIPSLTVSAGERVTINCKSNQNLLWSGNQRYCLVWHQWKPGQTPTPLITWTSDRYSGVPDRFIGGGSVTDFTLTISSVQAEDVALYFCQHHLHIPPWTFGGGTKLEIKR
notes: also called clone 7F2
B6: 10G12 (antibody, V domains shown)
VH: B5 VH with Q1E, Q3K, Q5E, Q6E, A9G, E10G
VL: B4 VL with L21M, R27Q, G33N, E36K, F38Y, N82S
notes: also called 10G2

What was measured:
[1] = molecular target: endogenous mouse tau (mouse) (UniProt P10637); assay: immunoblot, total mouse brain lysates
[2] = molecular target: tau in NFTs / tau pathology of human AD brain tissue (human) (UniProt P10636); assay: immunohistochemistry, human AD brain tissue
[3] = molecular target: sarkosyl-insoluble tau from the temporal cortex of human AD cases (human) (UniProt P10636); assay: immunoblot, sarkosyl-insoluble fraction of human temporal cortex
[4] = molecular target: sarkosyl-insoluble tau from the temporal cortex of human AD cases (human) (UniProt P10636); assay: immunoblot, sarkosyl-insoluble fraction of human temporal cortex; the lower-detection group

Binder	binding [1]	binding [2]	binding [3]	binding [4]
B1	binds	–	–	–
B2	binds	–	–	–
B3	binds	binds	binds	binds
B4	binds	binds	binds	–
B5	binds	binds	binds	–
B6	binds	binds	binds	–
